Experimental data: PubChem BioAssay AID1259254 (NCATS, 2017)

- Aim: 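Gene knock-downs that lead to re-replication, shown by excess G2 DNA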 (primary screen)
- Cell system: human HCT116 colorectal cancer cells
- Knock-down reagent: single siRNA against human genes
- Time to read-out: 3 days
- Measurement: 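Nuclei stained with Hoechst and imaged; cell-cycle phase assigned by DNA content; G2 share scaled per plate, non-targeting siRNA 0%, GMNN siRNA 100%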
- Direction: G2 robust z-score and G2 cells, % of GMNN control: higher = more G2 cells, more excess DNA replication; raw share of cells in G2: higher = larger share of cells with G2 DNA content
- Call rule: 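An siRNA counts as active if its G2 robust z-score lies at least 5 MADs above the screen median; here such calls match roughly 38% of GMNN control or more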
Here is one part, drawn at random, of about 59,000 deposited reagents. Of all reagents, about 1,550 (2.6%) got an active call. 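G2 share is only a proxy for re-replication; each gene was hit by three separate siRNAs, and active genes were retested.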 Raw values vary from plate to plate and are shown uncorrected. Reagents against one gene are numbered here. Not stated in the record: the amount of reagent.

The first 2 records, ahead of the listing:
gene symbol	reagent	G2 robust z-score	G2 cells, % of GMNN control	raw share of cells in G2 (%)	Call
WDR86 (GeneID 349136)	1	-0.00456	2.94	4.54	inactive
WDR86 (GeneID 349136)	2	0.306	5.12	6.25	inactive

Main list, from the start:
gene symbol	reagent	G2 robust z-score	G2 cells, % of GMNN control	raw share of cells in G2 (%)	Call
WDR86 (GeneID 349136)	1	-0.00456	2.94	4.54	inactive
WDR86 (GeneID 349136)	2	0.306	5.12	6.25	inactive
WDR86 (GeneID 349136)	3	0.132	3.89	5.32	inactive
MYH4 (GeneID 4622)	1	1.62	14.3	11.2	inactive
MYH4 (GeneID 4622)	2	-0.139	1.99	6.13	inactive
MYH4 (GeneID 4622)	3	0.483	6.37	5.3	inactive
ENSA (GeneID 2029)	1	4.02	31.2	16.1	inactive
ENSA (GeneID 2029)	2	0.102	3.69	4.6	inactive
ENSA (GeneID 2029)	3	0.471	6.28	5.56	inactive
PDE8B (GeneID 8622)	1	-0.81	-2.73	3.3	inactive
PDE8B (GeneID 8622)	2	-0.64	-1.54	4.16	inactive
PDE8B (GeneID 8622)	3	-0.688	-1.88	4.6	inactive
COLEC10 (GeneID 10584)	1	-1.29	-6.07	2.6	inactive
COLEC10 (GeneID 10584)	2	2.46	20.3	12.5	inactive
COLEC10 (GeneID 10584)	3	2.33	19.4	10.4	inactive
ANOS1 (GeneID 3730)	1	-0.825	-2.84	4.01	inactive
ANOS1 (GeneID 3730)	2	0.537	6.74	8.25	inactive
ANOS1 (GeneID 3730)	3	0.622	7.34	6.89	inactive
PCDHGA7 (GeneID 56108)	1	-0.121	2.12	7.36	inactive
PCDHGA7 (GeneID 56108)	2	-0.719	-2.09	3.69	inactive
PCDHGA7 (GeneID 56108)	3	0.529	6.69	7.12	inactive
FUCA2 (GeneID 2519)	1	1.81	15.7	10.9	inactive
FUCA2 (GeneID 2519)	2	-0.0883	2.35	6.16	inactive
FUCA2 (GeneID 2519)	3	-1.04	-4.34	2.11	inactive
SLC20A2 (GeneID 6575)	1	-0.0697	2.48	6.52	inactive
SLC20A2 (GeneID 6575)	2	0.667	7.66	7.17	inactive
SLC20A2 (GeneID 6575)	3	0.987	9.91	7.24	inactive
CHRNA5 (GeneID 1138)	1	0.151	4.03	6.76	inactive
CHRNA5 (GeneID 1138)	2	-0.284	0.971	5.11	inactive
CHRNA5 (GeneID 1138)	3	-0.659	-1.67	3.72	inactive
